Measurements reported in PubChem BioAssay AID504764 (Drosophila RNAi Screening Center, 2011)

Purpose: 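Genes whose knock-down alters Notch-dependent transcription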 (primary screen)
Cell system: Drosophila Kc167 cells
Reagents: long dsRNA against Drosophila genes
Duration: about 5 days (4 days dsRNA, then 24 h after transfection)
Conditions: transfection of constitutively active membrane-tethered Notch lacking the extracellular domain, read 24 h later
Read-out: 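Firefly luciferase from an E(spl)m3 reporter with active Notch, plus control-promoter and uninduced reporter wells for normalisation; unnormalised counts, duplicate wells a and b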
Reading the numbers: induced reporter light, run 1, well a and induced reporter light, run 1, well b: higher = more light from the Notch target reporter with active Notch; control promoter light, run 1, well a and control promoter light, run 1, well b: higher = more light from the viral control promoter (cell number, transfection, viability); uninduced reporter light, run 1, well a: higher = more light from the Notch target reporter without active Notch
Hit rule: 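Hit if the duplicate-averaged log2 ratio of induced to control-promoter light gives a plate-wise z beyond ±2, or induced to uninduced beyond ±1.8; weak-control or discordant-duplicate wells dropped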
Calls: active = modifier hit (raised or lowered Notch signal); inactive = not a hit
The screen tested about 22,000 reagents; this is a random part of those with a known target gene and a result. In the full data, 403 (1.9%) are marked active. 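Unnormalised raw counts per well; ratio z-scores behind the hit calls and whether each hit raises or lowers signal are not deposited.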 Reagents against one gene are numbered here. Reagent sequences are not shown. Not stated in the record: the amount of reagent.

For GEFmeso #1, how do the results read?
induced reporter light, run 1, well a: 90485; induced reporter light, run 1, well b: 81390; control promoter light, run 1, well a: 1.42e5; control promoter light, run 1, well b: 1.89e5; uninduced reporter light, run 1, well a: 7860; Outcome: inactive

What did the screen give for GEFmeso #2?
induced reporter light, run 1, well a: 39685; induced reporter light, run 1, well b: 39425; control promoter light, run 1, well a: 45275; control promoter light, run 1, well b: 38450; uninduced reporter light, run 1, well a: 5645; Outcome: inactive

With Papst2, what was measured?
induced reporter light, run 1, well a: 1.07e5; induced reporter light, run 1, well b: 1.64e5; control promoter light, run 1, well a: 85015; control promoter light, run 1, well b: 75940; uninduced reporter light, run 1, well a: 9082; Outcome: inactive

Which result is listed for Rab27?
induced reporter light, run 1, well a: 1.87e5; induced reporter light, run 1, well b: 1.81e5; control promoter light, run 1, well a: 2.48e5; control promoter light, run 1, well b: 2.71e5; uninduced reporter light, run 1, well a: 13410; Outcome: inactive

For CG30373, what does the deposit list?
induced reporter light, run 1, well a: 87745; induced reporter light, run 1, well b: 80965; control promoter light, run 1, well a: 1.03e5; control promoter light, run 1, well b: 98710; uninduced reporter light, run 1, well a: 4285; Outcome: inactive

How did the screen score Cp16?
induced reporter light, run 1, well a: 1.65e5; induced reporter light, run 1, well b: 1.78e5; control promoter light, run 1, well a: 2.47e5; control promoter light, run 1, well b: 2.21e5; uninduced reporter light, run 1, well a: 9342; Outcome: inactive

For CG4558, how do the results read?
induced reporter light, run 1, well a: 2.63e5; induced reporter light, run 1, well b: 2.91e5; control promoter light, run 1, well a: 3.22e5; control promoter light, run 1, well b: 3.17e5; uninduced reporter light, run 1, well a: 16670; Outcome: inactive

With Opbp, how do the results read?
induced reporter light, run 1, well a: 1.28e5; induced reporter light, run 1, well b: 1.45e5; control promoter light, run 1, well a: 1.12e5; control promoter light, run 1, well b: 1.31e5; uninduced reporter light, run 1, well a: 8530; Outcome: inactive

Which result is listed for CG1208?
induced reporter light, run 1, well a: 1.09e5; induced reporter light, run 1, well b: 86595; control promoter light, run 1, well a: 77145; control promoter light, run 1, well b: 70895; uninduced reporter light, run 1, well a: 7280; Outcome: inactive

How did the screen score Med?
induced reporter light, run 1, well a: 23700; induced reporter light, run 1, well b: 19065; control promoter light, run 1, well a: 24785; control promoter light, run 1, well b: 25695; uninduced reporter light, run 1, well a: 4350; Outcome: inactive

Looked up above:
Papst2, uninduced reporter light, run 1, well a: 9082
GEFmeso #2, uninduced reporter light, run 1, well a: 5645

Additional reagents follow.
With CG7148, how do the results read?
induced reporter light, run 1, well a: 1.14e5; induced reporter light, run 1, well b: 1.04e5; control promoter light, run 1, well a: 76315; control promoter light, run 1, well b: 86320; uninduced reporter light, run 1, well a: 8855; Outcome: inactive

For Rrp46, how do the results read?
induced reporter light, run 1, well a: 73945; induced reporter light, run 1, well b: 68930; control promoter light, run 1, well a: 81075; control promoter light, run 1, well b: 61720; uninduced reporter light, run 1, well a: 5255; Outcome: inactive

What is on record for CG8607?
induced reporter light, run 1, well a: 1.43e5; induced reporter light, run 1, well b: 1.43e5; control promoter light, run 1, well a: 1.38e5; control promoter light, run 1, well b: 1.18e5; uninduced reporter light, run 1, well a: 7060; Outcome: inactive

For CG9702, what was measured?
induced reporter light, run 1, well a: 1.15e5; induced reporter light, run 1, well b: 1.04e5; control promoter light, run 1, well a: 1.71e5; control promoter light, run 1, well b: 1.92e5; uninduced reporter light, run 1, well a: 10485; Outcome: inactive

How did the screen score Cow #1?
induced reporter light, run 1, well a: 1.89e5; induced reporter light, run 1, well b: 2.21e5; control promoter light, run 1, well a: 3.66e5; control promoter light, run 1, well b: 3.33e5; uninduced reporter light, run 1, well a: 11840; Outcome: inactive

What is on record for Cow #2?
induced reporter light, run 1, well a: 1.65e5; induced reporter light, run 1, well b: 1.58e5; control promoter light, run 1, well a: 1.93e5; control promoter light, run 1, well b: 1.76e5; uninduced reporter light, run 1, well a: 12245; Outcome: inactive

Which result is listed for CG18249?
induced reporter light, run 1, well a: 1.39e5; induced reporter light, run 1, well b: 1.17e5; control promoter light, run 1, well a: 97855; control promoter light, run 1, well b: 83870; uninduced reporter light, run 1, well a: 11200; Outcome: inactive

For CG8389 #1, what does the deposit list?
induced reporter light, run 1, well a: 1.05e5; induced reporter light, run 1, well b: 1.01e5; control promoter light, run 1, well a: 1.87e5; control promoter light, run 1, well b: 2.20e5; uninduced reporter light, run 1, well a: 10085; Outcome: inactive

How did the screen score CG8389 #2?
Outcome: inactive
